Source: PMC7819943, “Rice protein-binding microarrays: a tool to detect cis-acting elements near promoter regions in rice”
The other results are listed elsewhere or left out.

By UniProt entry, the sequences of proteins in these tests, tags left out.
UniProt Q0JBA9, entry or part of it: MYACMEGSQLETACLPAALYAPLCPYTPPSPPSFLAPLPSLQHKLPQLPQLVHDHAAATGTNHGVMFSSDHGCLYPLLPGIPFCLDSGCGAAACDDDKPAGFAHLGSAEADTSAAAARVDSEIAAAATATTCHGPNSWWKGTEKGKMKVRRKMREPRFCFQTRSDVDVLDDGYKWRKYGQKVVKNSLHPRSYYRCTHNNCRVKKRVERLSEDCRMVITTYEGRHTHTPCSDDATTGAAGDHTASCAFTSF

What follows are sequences tested against OsWRKY34 (Oryza sativa, UniProt Q0JBA9 1-250) (assay: protein-binding microarray (RPBM); PBS, 2% BSA, 51.3 ng/ul salmon testes DNA, 50 uM zinc acetate, 200 nM TF, 25 C, 1 h; high values mean tight binding). Conditions: protein: recombinant; tags: N-terminal polyhistidine and DsRed monomer fusion (pET32a); label: CyDye5-dUTP incorporated in the synthesized complementary strand; 3' TTTTT single-stranded linker to array surface; dsDNA, one strand shown.
Procedure, shortened: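 An Axon 4000B scanner gave the binding signal as per-feature fluorescence intensity in arbitrary units. This followed washing of a custom Agilent array that had been incubated for 1 h at 25 °C with 200 nM protein in PBS, 2% BSA, salmon testes DNA and 50 µM zinc acetate. The proteins were transcription factors fused at the N-terminus to polyhistidine and DsRed, expressed in E. coli BL21-CodonPlus and purified on Ni–NTA.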

Row | Sequence | binding signal
1 | GTTCACCACGCCGTCCCCGAAGTTTACAGTCTCCACCATGCGGAGTCACCTAGTGCAG | 8100 fluorescence intensity (a.u.)
2 | GTCTGCCACGGGTTCCTCGTCTCTTCCTCTCCATTTCTACCGGAGTCACCTAGTGCAG | 9670 fluorescence intensity (a.u.)
3 | CTGGAGTATTAGAATTCAGGCTTGGCTTCCAGTGTTCTGTCGGAGTCACCTAGTGCAG | 9640 fluorescence intensity (a.u.)
4 | TTTTCAATTTTCTGGTTGAGTAGGGGTTCGGAATTTTCTTCGGAGTCACCTAGTGCAG | 10600 fluorescence intensity (a.u.)
5 | ATAGGATTTTCCCAAAAGGTTAGAGTGGACGGGAACAAAACGGAGTCACCTAGTGCAG | 10400 fluorescence intensity (a.u.)
6 | AAAAAACATTTTCATTCTTCGCTTCAATTGTATAATACTACGGAGTCACCTAGTGCAG | 8730 fluorescence intensity (a.u.)
7 | CATCGCGTGATTCCGTTTTGCGCCGCCTCGCCTTTTGGATCGGAGTCACCTAGTGCAG | 11500 fluorescence intensity (a.u.)
8 | TAGCTACCTAAGCTTAGCTCACATTCTTCTCGCTTTCTCACGGAGTCACCTAGTGCAG | 12000 fluorescence intensity (a.u.)
9 | TCCATGCCATGCCATTCATCACTTTGATCCAATATTACCACGGAGTCACCTAGTGCAG | 9520 fluorescence intensity (a.u.)
10 | GTAGTTGCGTTTTCATATAATGGATATTATTTATTCATGTCGGAGTCACCTAGTGCAG | 11700 fluorescence intensity (a.u.)
11 | ATGTCCAGCCTTATGCTTTCACAACTAAGTCTCTGTTTGTCGGAGTCACCTAGTGCAG | 8750 fluorescence intensity (a.u.)
12 | TAATGGTATCTTGCAACTCATGTATATTTGTGATGGTATTCGGAGTCACCTAGTGCAG | 11800 fluorescence intensity (a.u.)
13 | TGGGGTTTGATTATTTGACATTTTGGTATATTTTCATCAACGGAGTCACCTAGTGCAG | 12400 fluorescence intensity (a.u.)
14 | GTTTGAATTCACACTGCACCATCTGATTACCCTTTCTCACCGGAGTCACCTAGTGCAG | 10300 fluorescence intensity (a.u.)
15 | ACCTCCATTCTCTCTGCTTCCTCTTCCTCTCCGCGTAGAGCGGAGTCACCTAGTGCAG | 9040 fluorescence intensity (a.u.)
16 | GTACACGCCACCTTCATCTATAGCCGCCGCATTTTACTACCGGAGTCACCTAGTGCAG | 8460 fluorescence intensity (a.u.)
17 | TCGCGTGTGGAGGGGAGGAGTGTGTGGGATATCCGGAAGCCGGAGTCACCTAGTGCAG | 9860 fluorescence intensity (a.u.)
18 | AGGCCGCCCTTCACCGCAACGACGGCGGGCGCTCGCGCTCCGGAGTCACCTAGTGCAG | 15000 fluorescence intensity (a.u.)
19 | GGTGATCTTTGTATTCTTTTTCTGCAGCGAACATATAGCTCGGAGTCACCTAGTGCAG | 16300 fluorescence intensity (a.u.)
20 | CTCGGGTTCCACCCACAACTTCATCTCCACATTGGCTGCCCGGAGTCACCTAGTGCAG | 8120 fluorescence intensity (a.u.)
21 | TTCGTGGCGCCATATATTATGGTCTTTGTTTGGGCAGAACCGGAGTCACCTAGTGCAG | 8380 fluorescence intensity (a.u.)

Pulled one by one from the list above (3):
Row | Sequence | binding signal
19 | GGTGATCTTTGTATTCTTTTTCTGCAGCGAACATATAGCTCGGAGTCACCTAGTGCAG | 16300 fluorescence intensity (a.u.)
16 | GTACACGCCACCTTCATCTATAGCCGCCGCATTTTACTACCGGAGTCACCTAGTGCAG | 8460 fluorescence intensity (a.u.)
18 | AGGCCGCCCTTCACCGCAACGACGGCGGGCGCTCGCGCTCCGGAGTCACCTAGTGCAG | 15000 fluorescence intensity (a.u.)

(cont.)

Row | Sequence | binding signal
22 | CCTGTCTATGTATGGGTAATGGGTGTACTATCTTTTCCATCGGAGTCACCTAGTGCAG | 10500 fluorescence intensity (a.u.)
23 | TATATATATATATATATATATATATATATATAAACCATGCCGGAGTCACCTAGTGCAG | 10600 fluorescence intensity (a.u.)
24 | AAGTCCACAGACTTCACCGCCGCTGTTACCGCGATCCCGGCGGAGTCACCTAGTGCAG | 10200 fluorescence intensity (a.u.)
25 | TAAACACGTCATTGCTCAGGTATTCGGATATTATTTTTTTCGGAGTCACCTAGTGCAG | 9730 fluorescence intensity (a.u.)
26 | TGCTGCACGTCATCCGCCCCGAAGCCCAATCCCTTGGCCACGGAGTCACCTAGTGCAG | 8770 fluorescence intensity (a.u.)
27 | CGACCTCTCACGCATCAACCCACTTGTAAACCACCCCGTCCGGAGTCACCTAGTGCAG | 8920 fluorescence intensity (a.u.)
28 | AAGTTGATGCTTTTGGACAGGGTTGACTTTACTTCTTTGGCGGAGTCACCTAGTGCAG | 14000 fluorescence intensity (a.u.)
29 | TTTCCACTGACACGCGCTAACAATTGCTACTATTTGCATGCGGAGTCACCTAGTGCAG | 8420 fluorescence intensity (a.u.)
30 | GGTTATTCATATGTTTTTCATACGTTTTACAATCATCTAACGGAGTCACCTAGTGCAG | 8360 fluorescence intensity (a.u.)
31 | CCACCCCAGCCCATCCATCCGACGGCCCAGATCACGCGCGCGGAGTCACCTAGTGCAG | 8500 fluorescence intensity (a.u.)
32 | GCTTTTTAGCTCTGCATCTATCTATCTCCTTTTTGCTTTTCGGAGTCACCTAGTGCAG | 8600 fluorescence intensity (a.u.)
33 | TATACTCCTTATCTTGGATTGGTAGTCTTTAGTTTGCTTTCGGAGTCACCTAGTGCAG | 9320 fluorescence intensity (a.u.)
34 | CTGGCCCGGGGTCGGGTGCGACGCGCGGGCGGGGCGGGTGCGGAGTCACCTAGTGCAG | 11100 fluorescence intensity (a.u.)
35 | GAAGAGGGGAAGGGGAGAGGAGGGAGGCGAGGAGCATGGCCGGAGTCACCTAGTGCAG | 8120 fluorescence intensity (a.u.)
36 | TTCATATTCAATGTTTGATCGTCCGTCTTATTTGAAGATTCGGAGTCACCTAGTGCAG | 8650 fluorescence intensity (a.u.)
37 | AATAGTTAGTTTTTTTTCACTTTGTACAAGCATTTTTTACCGGAGTCACCTAGTGCAG | 13000 fluorescence intensity (a.u.)
38 | CATCAGTACAGGCCCAACTTAAAAATTGCTCGGCCCATTTCGGAGTCACCTAGTGCAG | 8850 fluorescence intensity (a.u.)
39 | CTCTTCTTCTTCGGATTCGCAAGGTCCAAGGGTTTCTCCGCGGAGTCACCTAGTGCAG | 10100 fluorescence intensity (a.u.)
40 | TGCGCCATTAGCGTCACATGGGGTGGGCTCTTGTACACTACGGAGTCACCTAGTGCAG | 9890 fluorescence intensity (a.u.)
41 | ATCACTTATTTGCTTATTTGTTATTCACTCGTTTGAATCACGGAGTCACCTAGTGCAG | 10300 fluorescence intensity (a.u.)
42 | CACCCCTAACCTCGAAATCCTAATCCGCAGATCCTCTGTCCGGAGTCACCTAGTGCAG | 8210 fluorescence intensity (a.u.)
